1 sequence from article PMC5997322 (PLoS ONE, 2018) can be followed below.

A short description of the series: general procedure: Fmoc solid-phase peptide synthesis. To be noted: whole synthesis, analytical reversed-phase HPLC with UV detector.

Where a sequence shows no end group, the ends are not given.

Consider YLFSVHWPPLKA, for which the “final HPLC purity” value was found to be 98%.
